The test has as its system HEK293A TEAD-LUC reporter. The test can be described thus: TEAD-luciferase reporter activity (YAP activation), robust Z score vs plate; higher = stronger YAP/TEAD activation. The settings on record: 24 h. In general terms: A reporter such as luciferase makes a cellular process visible.

Where a name gives a salt, the structure may show the parent alone. Some of the results follow. Repeats in this data set agree poorly, so a single value says little.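 Human kidney-derived cells stably carry a construct in which eight TEAD-binding elements drive luciferase, measured by luminescence in a drug-repurposing library screen. A hit is any compound whose signal exceeds the plate mean by more than five robust Z scores.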

Take `O=C1c2ccccc2S(=O)(=O)N1CCCCN1CCN(c2cc(Cl)cc3c2OCCO3)CC1`: the TEAD-luciferase reporter activity (compound concentration: 200 nM) is inactive: 1.15, the TEAD-luciferase reporter activity (compound concentration: 2 uM) was inactive: -0.609 and the TEAD-luciferase reporter activity (compound concentration: 10 uM) is inactive: 0.319.
Taken in the same sequence, the figures for `O=P(O)(O)C(O)(CCN1CCCC1)P(=O)(O)O` were inactive: -0.505, inactive: -1.14 and inactive: -0.208.
Taken in the same sequence, the figures for `CCN[C@H]1CN(CCOC)S(=O)(=O)c2sc(S(N)(=O)=O)cc21` were inactive: -0.14, inactive: -0.442 and inactive: -2.06.
Take `CC(=O)c1ccc(C)cc1NC(C(N)=O)c1c(Cl)cccc1Cl` (configuration not stated) [Loviride]: the TEAD-luciferase reporter activity reads like this: (compound concentration: 200 nM) inactive: -0.938; (compound concentration: 2 uM) inactive: -0.732; (compound concentration: 10 uM) inactive: 3.4.
Taken in the same sequence, the figures for `CCc1nc(C(N)=O)c(Nc2ccc(N3CCC(N4CCN(C)CC4)CC3)c(OC)c2)nc1NC1CCOCC1` [Gilteritinib] were inactive: -0.886, inactive: -0.00382 and inactive: -1.32.
`C=CC(=O)Nc1cccc(Nc2nc(Nc3ccc(N4CCN(C(C)=O)CC4)cc3OC)ncc2C(F)(F)F)c1` [Rociletinib hydrobromide]: the TEAD-luciferase reporter activity is, setting by setting: (compound concentration: 200 nM) inactive: -0.499; (compound concentration: 2 uM) inactive: -3.03; (compound concentration: 10 uM) inactive: 2.43.
On to `CN(C)CCn1c(=O)c2cccc3c4c5c(ccc4n(c1=O)c23)C(=O)CCC5`, for which the TEAD-luciferase reporter activity by setting is: (compound concentration: 200 nM) inactive: 0.13; (compound concentration: 2 uM) inactive: 1.67; (compound concentration: 10 uM) inactive: 2.02.
Taken in the same sequence, the figures for `COC(=O)c1ccccc1C(=O)c1ccc(OCCN2CCCCC2)cc1` were inactive: 0.413, inactive: 1.09 and inactive: -0.156.
Taken in the same sequence, the figures for `Cc1noc(-c2ccc(-c3ccc(CC(=O)O)cc3)cc2)c1NC(=O)O[C@H](C)c1ccccc1` were inactive: -2.48, inactive: -2.45 and inactive: 1.02.
Taken in the same sequence, the figures for `CCCCCOc1ccccc1/C(=C\SC)n1ccnc1` were inactive: -0.162, inactive: 0.862 and inactive: 1.28.
As to `CO/N=C/C1=CCCN(C)C1` [Milameline hydrochloride], the TEAD-luciferase reporter activity by setting is: (compound concentration: 200 nM) inactive: -1.55; (compound concentration: 2 uM) inactive: 2.05; (compound concentration: 10 uM) inactive: -0.7.
Taken in the same sequence, the figures for `CCc1cc(Oc2cccc(N(Cc3cccc(OC(F)(F)C(F)F)c3)C[C@@H](O)C(F)(F)F)c2)ccc1Cl` were inactive: -1.03, inactive: 0.0522 and inactive: 0.919.
Taken in the same sequence, the figures for `CCN1CCN(C(c2cccs2)c2ccc3cccnc3c2O)CC1` (configuration not stated) were inactive: 2.08, inactive: 1.64 and inactive: -0.949.
Taken in the same sequence, the figures for `CC(=O)c1c2c(c(C)[nH]c1=O)CCCC2` were inactive: -1.06, inactive: -1.19 and inactive: -0.797.
As to `CN1CCN(C2CCC(n3cc(-c4ccc(NS(=O)(=O)c5cccc(Cl)c5Cl)c(F)c4)c4c(N)ncnc43)CC2)CC1` (configuration not stated), the TEAD-luciferase reporter activity runs as follows: (compound concentration: 200 nM) inactive: 0.649; (compound concentration: 2 uM) inactive: -2.21; (compound concentration: 10 uM) inactive: -0.43.
Turning to `COc1ccc(C#Cc2ccccc2)c(CCC(C)N(C)CCc2ccc(OC)c(OC)c2)c1` (configuration not stated), the TEAD-luciferase reporter activity (compound concentration: 200 nM) is inactive: -0.684, the TEAD-luciferase reporter activity (compound concentration: 2 uM) is inactive: -1.84 and the TEAD-luciferase reporter activity (compound concentration: 10 uM) was inactive: 2.63.
Taken in the same sequence, the figures for `O=C1NC(=O)C2C3C=CC(C12)C1C2C(=O)NC(=O)C2C31` (configuration not stated) [mitindomide] were inactive: -2.19, inactive: -1.34 and inactive: -1.59.
In the case of `CCNC(=O)[C@H]1O[C@@H](n2cnc3c(NCC(c4ccccc4)c4ccccc4)nc(C(=O)NCCNC(=O)NC4CCN(c5ccccn5)CC4)nc32)[C@H](O)[C@@H]1O`, the TEAD-luciferase reporter activity is inactive: -0.701 (compound concentration: 200 nM), inactive: -2 (compound concentration: 2 uM) and inactive: -0.171 (compound concentration: 10 uM).
Take `CCOc1c(N)c2c(c(OCC)c1OCC)C(C1c3c(cc4c(c3OC)OCO4)CCN1C)OC2=O` (configuration not stated) [Tritoqualine]: the TEAD-luciferase reporter activity runs as follows: (compound concentration: 200 nM) inactive: 0.248; (compound concentration: 2 uM) inactive: -0.107; (compound concentration: 10 uM) inactive: 0.934.
Consider `CN(C)CC/C=C1/c2ccccc2COc2ccc(CC(=O)O)cc21`, for which the TEAD-luciferase reporter activity (compound concentration: 200 nM) was inactive: -1.03 and the TEAD-luciferase reporter activity (compound concentration: 10 uM) is inactive: -0.204.
In the case of `CN(C)CC/C=C1/c2ccccc2COc2ccc(CC(=O)O)cc21` [olopatadine (high-dose)], where the note is “compound concentration: 2 uM”, the TEAD-luciferase reporter activity is inactive: -0.133.
Regarding `O=C(/C=C/c1c(-c2ccccc2)nn2ccccc12)N1CCCC[C@@H]1CCO`, the TEAD-luciferase reporter activity (compound concentration: 200 nM) is inactive: -0.138, the TEAD-luciferase reporter activity (compound concentration: 2 uM) is inactive: -1.04 and the TEAD-luciferase reporter activity (compound concentration: 10 uM) was inactive: 2.88.
Taken in the same sequence, the figures for `CN1CCN(C(c2ccccc2)c2ccccc2)CC1` [Cyclizine hydrochloride] were inactive: 0.709, inactive: -0.181 and inactive: 3.16.
Taken in the same sequence, the figures for `CN1CCC(NC(=O)c2cccn3ccnc23)CC1` were inactive: -0.0914, inactive: -0.958 and inactive: 3.03.
Taken in the same sequence, the figures for `CC(OC(=O)c1c[nH]c2ccccc12)C1CCCCN1C` (configuration not stated) were inactive: -1.1, inactive: 0.233 and inactive: 1.54.

(Values after the supplement of paper PMC10735217.)
